Holding throughout (experiment): co-IP; AGS cells transfected with plasmids for wild type CagA, ΔEPIYA-CagA mutants or PR CagA; lysates immunoprecipitated with CagA antibody, blots for ULF, SIVA1 and MKRN1
The target of experiment [1] is wild type CagA expressed from plasmid (WT-CagA) (Helicobacter pylori (strain not stated)).
The target of experiment [2] is CagA phosphorylation-deficient mutant (PR CagA) (Helicobacter pylori (strain not stated)).
Experiment [3] concerns the target ΔEPIYA-CagA deletion mutant Δ2 (lacks two EPIYA motifs) (Helicobacter pylori (strain not stated)).
Experiment [4] addresses ΔEPIYA-CagA deletion mutant Δ3 (lacks three EPIYA motifs) (Helicobacter pylori (strain not stated)).

Two molecules from publication PMC9242521 can be followed below.

These are yes or no findings as the source states them, for the method shown. Binding seen in cells or lysates may run through a third protein. For some assays here: A result given as binding can be weak or reduced; the word gives no strength.

B1: MKRN1 (endogenous) (protein, UniProt Q9UHC7 1-482)
chain: MAEAATPGTTATTSGAGAAAATAAAASPTPIPTVTAPSLGAGGGGGGSDGSGGGWTKQVTCRYFMHGVCKEGDNCRYSHDLSDSPYSVVCKYFQRGYCIYGDRCRYEHSKPLKQEEATATELTTKSSLAASSSLSSIVGPLVEMNTGEAESRNSNFATVGAGSEDWVNAIEFVPGQPYCGRTAPSCTEAPLQGSVTKEESEKEQTAVETKKQLCPYAAVGECRYGENCVYLHGDSCDMCGLQVLHPMDAAQRSQHIKSCIEAHEKDMELSFAVQRSKDMVCGICMEVVYEKANPSERRFGILSNCNHTYCLKCIRKWRSAKQFESKIIKSCPECRITSNFVIPSEYWVEEKEEKQKLILKYKEAMSNKACRYFDEGRGSCPFGGNCFYKHAYPDGRREEPQRQKVGTSSRYRAQRRNHFWELIEERENSNPFDNDEEEVVTFELGEMLLMLLAAGGDDELTDSEDEWDLFHDELEDFYDLDL
With B1, the binding result in experiment [1] is on record as “no binding”.

B2: SIVA1 (endogenous) (protein, UniProt O15304 1-175)
chain: MPKRSCPFADVAPLQLKVRVSQRELSRGVCAERYSQEVFEKTKRLLFLGAQAYLDHVWDEGCAVVHLPESPKPGPTGAPRAARGQMLIGPDGRLIRSLGQASEADPSGVASIACSSCVRAVDGKAVCGQCERALCGQCVRTCWGCGSVACTLCGLVDCSDMYEKVLCTSCAMFET
B2: the binding entry was “no binding” in experiment [2], “binds” in experiment [1], “binds” in experiment [3] and “no binding” in experiment [4].
